Source: ChEMBL document CHEMBL3988442, “University of Dundee, Small-Polar-MMV Screening Library” (2021).

Amino acid sequences for entries named in this document (tags omitted).
UniProt E9BF75, entry or part of it: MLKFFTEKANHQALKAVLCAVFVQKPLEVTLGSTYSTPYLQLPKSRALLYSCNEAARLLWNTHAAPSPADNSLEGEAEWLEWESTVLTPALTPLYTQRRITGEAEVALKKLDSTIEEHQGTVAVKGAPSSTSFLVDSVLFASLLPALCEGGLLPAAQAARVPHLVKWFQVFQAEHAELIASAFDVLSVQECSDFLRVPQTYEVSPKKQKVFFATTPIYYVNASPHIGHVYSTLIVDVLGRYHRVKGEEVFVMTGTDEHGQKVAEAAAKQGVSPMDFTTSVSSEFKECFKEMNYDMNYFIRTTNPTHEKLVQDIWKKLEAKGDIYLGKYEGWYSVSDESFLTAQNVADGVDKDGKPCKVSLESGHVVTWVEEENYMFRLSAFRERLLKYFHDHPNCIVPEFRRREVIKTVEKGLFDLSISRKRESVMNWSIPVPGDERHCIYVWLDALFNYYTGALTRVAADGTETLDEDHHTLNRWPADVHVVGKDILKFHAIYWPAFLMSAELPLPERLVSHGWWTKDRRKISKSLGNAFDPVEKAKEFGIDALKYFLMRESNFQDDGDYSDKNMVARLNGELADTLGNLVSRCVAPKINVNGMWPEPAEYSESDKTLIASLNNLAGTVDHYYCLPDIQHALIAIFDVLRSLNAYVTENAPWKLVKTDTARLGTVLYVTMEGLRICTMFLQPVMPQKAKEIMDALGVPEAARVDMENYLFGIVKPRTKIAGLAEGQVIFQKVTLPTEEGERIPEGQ

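Primary screen of methionyl-tRNA synthetase; the read-out is not stated. Target: Methionyl-tRNA synthetase (putative), Leishmania donovani (UniProt E9BF75). The test concentration is not given. Values are per cent inhibition. Of about 68,000 compounds tested this way, about 24 (0.035%) reached 50% or more in at least one test.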

All values are in %. The controls that fix the scale are not given in the record; negative values are as filed. This is an unselected part of the compounds tested.

| # | structure | Inhibition |
|---|---|---|
| 1 | `COCC[C@]1(O)CCN(CC(=O)NCc2ccccn2)C[C@H]1C` | 5.322 |
| 2 | `CC(C(=O)N1CCCN(Cc2cscn2)CC1)N1CCOCC1` (centres undefined) | 15.79 |
| 3 | `C=C/C=c1\c(=C/C)oc2c(NCc3ccccc3)nc(C)nc12` | 12.9 |
| 4 | `COc1ccc(OC)c(C2CCN(CC(C)(C)N3CCOCC3)C2)c1` (centres undefined) | 5.108 |
| 5 | `Cc1noc(C)c1CN(Cc1cccnc1)C1CN2CCC1CC2` (centres undefined) | 11.88 |
| 6 | `COc1c(C2CCCN2CC(=O)Nc2nccs2)c(C)nn1C` (centres undefined) | 7.046 |
| 7 | `COc1cc(OC)cc(C(=O)Nc2ncnc3c2CCC3)c1` | 2.638 |
| 8 | `O=C1CCCc2cc(-c3csc(CCN4CCOC4=O)n3)ccc2N1` | 10.12 |
| 9 | `COc1ccc2cc(C(=O)N3CCCCC3Cn3cccn3)[nH]c2c1` (centres undefined) | 12.55 |
| 10 | `CCOc1ccc(CNCCCn2ccnc2)cc1Cl` | -15.84 |
| 11 | `Cc1ccc(-n2nnc(CC(=O)N3CCN(C(C)C)CC3)c2C)cc1` | 14.99 |
| 12 | `Cc1cnn(CC2CCCN2CCCS(C)(=O)=O)c1` (centres undefined) | 26.88 |
| 13 | `CCCn1nc2c(cc1=O)CN(c1ncnc3ccsc13)CC2` | 22.85 |
| 14 | `CCOCC1CN(C(=O)c2cccc(C)n2)Cc2cnn(C)c21` (centres undefined) | 5.205 |
| 15 | `O=C(c1cnn2cccnc12)N1CCCC(n2ccnc2)C1` (centres undefined) | 13.25 |
| 16 | `COCCNC(=O)[C@@H]1CN(c2ncccn2)C[C@H]2OCC[C@H]21` | 4.127 |
| 17 | `COc1ccccc1CC(C)N(C)S(C)(=O)=O` (centres undefined) | 10.99 |
| 18 | `CCCS(=O)(=O)N1CCCC(c2nc(-c3ccccc3)c[nH]2)C1` (centres undefined) | 14.29 |
| 19 | `CN(Cc1ccncc1)C(CO)c1cccc(Br)c1` (centres undefined) | 7.396 |
| 20 | `CCCOC(=O)N1CCCC2(CCN(Cc3cccc(C#N)c3)C2)C1` (centres undefined) | 24.29 |
| 21 | `CCCn1c(C)c(CC(=O)N(C)CCOC)c2c1CC(C)(C)CC2=O` | 14.96 |
| 22 | `CC(NC(=O)NCc1ccc(Cl)cc1)c1ccccn1` (centres undefined) | 12.5 |
| 23 | `COCCCNS(=O)(=O)c1cccc(CSC)c1` | -8.189 |
| 24 | `CN(CC(=O)N1CCN(c2ccccc2F)CC1)c1cnccn1` | 12.38 |
| 25 | `CNC(=O)C1Cn2ccnc2C2(CCN(Cc3cccs3)CC2)O1` (centres undefined) | 4.478 |
| 26 | `CCc1csc(CNC2CCN(Cc3ccccc3)C2)n1` (centres undefined) | 20.53 |
| 27 | `Cc1ccc(OCCN2CCC(c3nc(C)n4c(C)csc34)CC2)cc1` | 20.31 |
| 28 | `Cc1cccc(N(CCC(N)=O)C(=O)c2ccnc(C)n2)c1` | 19.51 |
| 29 | `CC(C)c1ccc(C(O)Cn2c(=O)c(C#N)cn(C3CC3)c2=O)cc1` (centres undefined) | 6.122 |
| 30 | `COc1ccc(C)cc1S(=O)(=O)NCC(c1cccn1C)N(C)C` (centres undefined) | 7.389 |
| 31 | `COc1cc(C(=O)NCCc2ccccc2OC)on1` | 9.353 |
| 32 | `Cc1c(C(=O)O)oc2ccc(I)cc12` | 13.06 |
| 33 | `CN(CC(=O)NCCCOc1ccc(F)cc1)c1ccc(C#N)cn1` | 9.859 |
| 34 | `CN1CCN(C2COC3(CCN(Cc4cccs4)CC3)C2)CC1` (centres undefined) | 11.44 |
| 35 | `Cc1cnnn1Cc1nnn2c1CN(Cc1ccccn1)CCC2` | 8.711 |
| 36 | `Cc1cc(C(=O)N2CCC(c3nnc(Cn4ccnc4)n3C)CC2)cs1` | 14.72 |
| 37 | `COC[C@]12COC[C@H]1CN(C(=O)c1ccc(F)cc1C)C2` | 10.87 |
| 38 | `Cc1noc(C)c1C(=O)NCC(c1cccc(F)c1)N(C)C` (centres undefined) | 16.19 |
| 39 | `Cc1ccccc1-c1noc(CNc2ccc(F)cc2OCCO)n1` | 16.37 |
| 40 | `O=C(c1ccco1)N1CCCn2cnc(COCC3CC3)c2C1` | 14.29 |
| 41 | `CCN1c2ccc(-c3cncn3CC(=O)NC(C)(C)C)cc2CC1C` (centres undefined) | 29.68 |
| 42 | `CC(C)c1n[nH]c(C2CN(C(=O)c3csnn3)CCO2)n1` (centres undefined) | 7.087 |
| 43 | `Cc1ccc(CN2C(=O)CCC2C(=O)Nc2cnn(C)c2)o1` (centres undefined) | 11.27 |
| 44 | `CCCc1noc(CN(C)Cc2ccc3c(c2)OCO3)n1` | 11.54 |
| 45 | `CN(C)c1cccc(C2CCN(c3ncccn3)CC2)n1` | 15.22 |
| 46 | `Cc1ccc(OCCC(=O)N2CCOCC2c2ncon2)cc1C` (centres undefined) | 10.74 |
| 47 | `CCCNC(=O)c1cccc(CNCc2csc(C(C)(C)C)n2)c1` | 10.18 |
| 48 | `COCCN1CC[C@]2(CN(C(=O)c3ccc[nH]3)C[C@H]2C)C1=O` | -0.5464 |
| 49 | `O=C(NCC1CC1)Nc1cccc(N2CCN(CC3CC3)CC2)c1` | 10.78 |
| 50 | `CCc1cc(N(C)Cc2nonc2C)nc(N(C)C)n1` | 6.969 |
| 51 | `CC(C)c1nc(C2CCCN(c3cnc4ccccc4n3)C2)no1` (centres undefined) | 24.15 |
| 52 | `Cn1cccc1CN1CCC2(CC1)CC(Oc1cccnc1)C2` | 9.783 |
| 53 | `CC(C)NC(=O)[C@H]1C[C@@H]2[C@@H](C1)OCCN2Cc1cnn(C)c1` | 15.48 |
| 54 | `CN1CCc2nc3cc(C(=O)NCc4cccs4)ccc3c(=O)n2CC1` | 5.397 |
| 55 | `Cc1ccc(N2CC[C@@H]3[C@@H]2CCN3C(=O)Cc2ccsc2)nn1` | 18.18 |
| 56 | `CCOc1cc(/C=C/c2ncc(C(=O)O)s2)cc(Cl)c1OC` | 20.14 |
| 57 | `Cc1cc(NC(=O)CN2CCOC(Cn3cccn3)C2)n(C)n1` (centres undefined) | 13.89 |
| 58 | `NC(=O)c1ccc(NC(=O)c2ccncc2F)cn1` | 8.527 |
| 59 | `CCN(Cc1nc2c(cnn2C)c(=O)[nH]1)Cc1ccccc1C` | 4.178 |
| 60 | `CSCC(C)NS(=O)(=O)c1ccc(C)c(N(C)C)c1` (centres undefined) | -0.5602 |
| 61 | `COCC1COCCC12CCN(C(=O)CC1Cc3ccccc3C1)CC2` (centres undefined) | 6.628 |
| 62 | `CC(C)(O)CN1CCN(C(=O)c2cccn2Cc2ccncc2)CC1` | 23.92 |
| 63 | `Cn1ncc2c(=O)[nH]c(CN3CCCC3c3ccsc3)nc21` (centres undefined) | 17.88 |
| 64 | `OCc1nnc2n1CCN(c1cnccn1)C2` | 18.58 |